From patent publication US20170073392A1
Results are given in words; binding and its absence hold for the method and conditions named. Some results given as binding are weak or reduced against the parent protein; the word gives no strength. Sequences can lack the tags named with a protein.

Chains of the proteins cited; added tags and fusions are not shown. Residues count along the entry.
UniProt P16070, residues 21-742: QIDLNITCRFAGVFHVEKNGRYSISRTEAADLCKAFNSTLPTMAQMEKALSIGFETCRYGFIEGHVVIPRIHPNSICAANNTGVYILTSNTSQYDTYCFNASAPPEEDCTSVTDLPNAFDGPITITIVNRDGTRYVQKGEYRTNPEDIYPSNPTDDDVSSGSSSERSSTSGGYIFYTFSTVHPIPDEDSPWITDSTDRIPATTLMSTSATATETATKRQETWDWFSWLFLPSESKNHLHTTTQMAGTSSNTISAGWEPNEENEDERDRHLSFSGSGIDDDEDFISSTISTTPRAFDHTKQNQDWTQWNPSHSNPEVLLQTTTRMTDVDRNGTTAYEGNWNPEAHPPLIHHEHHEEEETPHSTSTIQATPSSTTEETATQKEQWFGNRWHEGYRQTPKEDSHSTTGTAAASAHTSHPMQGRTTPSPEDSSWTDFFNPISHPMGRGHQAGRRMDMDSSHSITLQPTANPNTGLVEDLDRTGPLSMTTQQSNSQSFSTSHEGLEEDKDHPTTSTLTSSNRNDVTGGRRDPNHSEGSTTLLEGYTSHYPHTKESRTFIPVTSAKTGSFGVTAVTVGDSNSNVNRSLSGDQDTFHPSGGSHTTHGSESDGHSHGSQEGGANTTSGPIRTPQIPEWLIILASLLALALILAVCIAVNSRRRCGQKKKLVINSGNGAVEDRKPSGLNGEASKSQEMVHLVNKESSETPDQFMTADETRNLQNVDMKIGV

Molecular target: CD44v5 on the human colon carcinoma cell line HCT-116 (human) (UniProt P16070)
Assay: fluorescence cytochemistry on fixed HCT-116 cells, Qdot-peptide conjugate 100 nM

Binder: PGVPGVQLTANTQSLVLMSAFDIAIEVTFISSHHHHHH (peptide, not shown: large carriers, coupled via the His6-Tag to the QDBP-655 quantum dot) [MBP-(YTH_v5_A)-His6 fusion protein (peptide A) coupled to QDBP-655 quantum dots]
- binding: binds
